Data from patent US10751303B2, “Method for shortening anti-infective therapy duration in subjects with infection” (INSTITUTE FOR CLINICAL PHARMACODYNAMICS, INC., priority 2015, dated 2020).
At least one compound was matched to its structure with a doubt left.

How the values were obtained:
[1] = test system: S. aureus ATCC 29213; assay: 24-hour one-compartment dynamic in vitro infection model; type: cell-based
From the text: Not previously recognized is the potential to modulate the intrinsic bacterial replication rate in combination with an antimicrobial agent as a means to increase the rate and extent of bactericidal activity. […] Each treatment arm and associated control arm differed only in sodium chloride concentration (0, 8, and 10%) within the growth media. […] Note also that bacterial killing occurred only during bacterial replication.

[2] = test system: S. aureus ATCC 29213; assay: zones of inhibition on Muller-Hinton agar supplemented with sodium chloride; type: cell-based; details: levofloxacin 0.5 to 5 mg/L; agar with 0, 8 and 10% sodium chloride; data not shown

C[C@H]1COc2c(N3CCN(C)CC3)c(F)cc3c(=O)c(C(=O)O)cn1c23 [levofloxacin]
onset of CFU/mL reduction in active treatment arm ([1]; 0% sodium chloride, levofloxacin free-drug AUC:MIC ratio 65): immediate CFU/mL reduction
rate (slope, 0-4 hours) and extent (24-hour CFU/mL) of bactericidal activity ([1]; levofloxacin free-drug AUC:MIC ratio 65, single dose, sodium chloride 0, 8 and 10% in growth media): as the sodium chloride concentration increases, the rate (slope, 0-4 hours) and extent (24-hour CFU/mL) decreased
zones of inhibition [2]: did not vary by sodium chloride concentration
